Laboratory results as given in paper PMC12583701.
Results are given in words; binding and its absence hold for the method and conditions named. Binding seen in cells or lysates may run through a third protein. A yes stands for co-enrichment or nearness to the bait. Other partners may have been found.

By UniProt entry, the sequences of proteins in these tests, tags left out.
UniProt Q66H76: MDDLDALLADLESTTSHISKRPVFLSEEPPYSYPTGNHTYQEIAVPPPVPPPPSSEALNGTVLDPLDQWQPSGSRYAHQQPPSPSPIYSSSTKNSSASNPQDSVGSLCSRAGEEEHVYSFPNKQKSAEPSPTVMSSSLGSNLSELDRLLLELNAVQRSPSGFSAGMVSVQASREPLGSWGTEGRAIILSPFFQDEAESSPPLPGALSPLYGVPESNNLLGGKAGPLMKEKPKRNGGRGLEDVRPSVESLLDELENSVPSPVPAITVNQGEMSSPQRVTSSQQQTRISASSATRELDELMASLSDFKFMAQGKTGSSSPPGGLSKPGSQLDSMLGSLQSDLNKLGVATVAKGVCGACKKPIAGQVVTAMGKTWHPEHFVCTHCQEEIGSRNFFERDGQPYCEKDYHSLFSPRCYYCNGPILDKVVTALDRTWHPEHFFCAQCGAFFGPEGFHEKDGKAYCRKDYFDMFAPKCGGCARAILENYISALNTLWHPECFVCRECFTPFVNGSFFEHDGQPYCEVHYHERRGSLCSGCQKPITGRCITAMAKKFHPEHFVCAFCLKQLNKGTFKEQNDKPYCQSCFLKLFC
UniProt F2Z3T9: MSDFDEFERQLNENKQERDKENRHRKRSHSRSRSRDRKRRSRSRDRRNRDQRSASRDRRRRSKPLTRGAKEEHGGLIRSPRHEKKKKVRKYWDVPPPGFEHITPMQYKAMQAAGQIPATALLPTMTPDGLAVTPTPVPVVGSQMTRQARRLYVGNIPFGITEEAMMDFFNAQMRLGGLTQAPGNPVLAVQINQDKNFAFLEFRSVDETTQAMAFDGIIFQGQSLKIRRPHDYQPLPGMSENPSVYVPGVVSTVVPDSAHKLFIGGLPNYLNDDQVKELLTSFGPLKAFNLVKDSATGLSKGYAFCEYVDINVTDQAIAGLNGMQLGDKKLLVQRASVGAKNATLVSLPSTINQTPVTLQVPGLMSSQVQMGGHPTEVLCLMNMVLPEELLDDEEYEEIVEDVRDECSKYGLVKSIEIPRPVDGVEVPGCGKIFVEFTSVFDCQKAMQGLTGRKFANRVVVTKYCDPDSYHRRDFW

Molecular target: paxillin (endogenous, rat primary neurons) (rat (endogenous in primary neuronal cultures)) (UniProt Q66H76)
Assay: affinity purification with mass spectrometry; paxillin immunoprecipitated (paxillin polyclonal antibodies on protein G) from lysates of DIV7 rat primary neuronal cultures treated with BDNF with or without IPZ pretreatment; SDS-PAGE, in-gel digestion, LC-MS/MS

binding | Molecule
binds | U2AF2 (rat) (from UniProt F2Z3T9 1-475)
binds | NOVA1 (protein, UniProt Q80WA4 1-474) MAAAPIQQNGTHTGVPIDLDPPDSRKRPLEAPPEAGSTKRTNTGEDGQYFLKVLIPSYAAGSIIGKGGQTIVQLQKETGATIKLSKSKDFYPGTTERVCLIQGTIEALNAVHGFIAEKIREMPQNVAKTEPVSILQPQTTVNPDRIKQVKIIVPNSTAGLIIGKGGATVKAIMEQSGAWVQLSQKPDGINLQERVVTVSGEPEQNRKAVELIIQKIQEDPQSGSCLNISYANVTGPVANSNPTGFPYANTAEVLPTAAAAAGLLGHANLAGVAAFPAVLSGFTGNDLVAITSALNTLASYGYNLNTLGLGLSQAAATGALAAAAASANPAAAAANLLATYASEASASGSTAGGTAGTFALGSLAAATAATNGYFGAASPLAASAILGTEKSTDGSKDVVEIAVPENLVGAILGKGGKTLVEYQELTGARIQISKKGEFVPGTRNRKVTITGTPAATQAAQYLITQRITYEQGVR
